From PubChem BioAssay AID540256 (National Center for Advancing Translational Sciences (NCATS), 2011)
Several values for one entry are separate records, joined by “and”; a condition that tells them apart may be missing. Equal values may be shown once. Among all 300,000 compounds or so, about 3,700 (1.2%) were called active. Inconclusive means that the source gave no clear call. Such entries were picked first, then a sample of the others. The call rests on the fitted dose curve; tested in HEK293 cells. Potencies beside an inconclusive call are fits to weak or partial responses and may not hold up.

Test: qHTS for Inhibitors of binding or entry into cells for Lassa Virus; further: nearly all actives have a fitted effect of over 50% in size
Conditions: Lassa virus pseudotype entry inhibition, cell reporter; series mostly up to 37.9 µM
Potency means the concentration at half of the fitted maximal effect.

| Structure (SMILES) | Potency |
| --- | --- |
| Cc1nc2cc(CC(=O)O)ccc2o1 | inconclusive: 18.3 µM [activator, single point] |
| CC(=O)N/N=C/c1cc(C(C)(C)C)cc(/C=N/NC(C)=O)c1O | inconclusive: 11.2 µM [inhibitor, partial curve, poor fit] |
| CC(NC(C)(C)C)C(=O)c1cccc(Cl)c1 (stereo unspecified) | inconclusive: 4.61 µM [inhibitor, partial curve, poor fit] |
| O=C(Nc1ccc([N+](=O)[O-])cc1NC(=O)c1ccccc1)c1ccccc1 | inactive |
| Cc1ccc(CC(=O)Nc2cccc(C)n2)cc1 | inconclusive: 25.9 µM [inhibitor, single point] |
| Cc1onc(-c2ccccc2)c1C(=O)NNC(=S)NC(=O)/C=C/c1cccs1 | inactive |
| Cc1cc(C)c2nc(N(CCCN(C)C)C(=O)c3ccc(S(=O)(=O)N4CCCCCC4)cc3)sc2c1 | inconclusive: 28.2 µM [inhibitor, single point] |
| COc1ccc(NS(=O)(=O)c2cc(NC(=O)COc3ccccc3)ccc2N2CCOCC2)cc1 | inconclusive: 1.78 µM [inhibitor, partial curve, poor fit] |
| CC12C(=O)OC(=O)C1(C)C1CCC2O1 (stereo unspecified) | active: 7.94 µM and active: 2.91 µM |
| CCOC(=O)c1ccc(NC(=O)Cn2cc(C(=O)C3CC3)c3ccccc32)cc1 | inconclusive: 6.31 µM [inhibitor, partial curve, poor fit] |
| COc1ccccc1CNC(=O)CCc1c(C)c2cc3c(C)c(C)oc3cc2oc1=O | inactive |
| COc1cc(C(=O)Nc2nc3ccccc3[nH]2)ccc1OC(F)F | inconclusive: 11.2 µM [inhibitor, partial curve, poor fit] |
| CCOC(=O)CNC(=O)Cn1c(C)cc2ccccc2c1=O | inactive |
| CC(=O)N1CCc2cc(S(=O)(=O)NCCC(=O)N3CCc4ccccc4C3)ccc21 | inconclusive: 7.3 µM [inhibitor, partial curve] |
| CN(C)CCCNC(=S)NCC(c1ccc(Cl)cc1Cl)c1c[nH]c2ccccc12 (stereo unspecified) | active: 10 µM |
| Cc1ccc(C(C)C)c(OCc2ccc(C(=O)N/N=C/c3ccc(O)cc3O)cc2)c1 | inconclusive: 12.6 µM [inhibitor, partial curve, poor fit] |
| COCC(=O)n1nc(-c2ccco2)nc1NCc1ccccc1Cl | inconclusive: 7.94 µM [activator, partial curve, poor fit] |
| Cc1cc(NC(=O)CSc2nnc(-c3ccccc3)c(-c3ccccc3)n2)no1 | inconclusive: 1.26 µM [inhibitor, full curve, poor fit] |
| Cc1ccccc1OCCN(C#N)c1nc(N(C)C)nc(N(C)C)n1 | inconclusive: 35.5 µM [inhibitor, partial curve, poor fit] |
| COc1cccc([C@@H]2Oc3ccc(Br)cc3C(=O)[C@@H]2O)c1 | inconclusive: 0.0335 µM [activator, full curve, poor fit] |
| Oc1cccc(-c2nc(-c3ccccc3)[nH]c2-c2ccncc2)c1 | inconclusive: 31.5 µM [inhibitor, single point] |
| COc1ccc(OC)c(CCNC(=O)CN2C(=O)CCSc3ccccc32)c1 | inactive |
| Cc1ccccc1OCCn1cc(C(=O)C(=O)N2CCOCC2)c2ccccc21 | inconclusive: 0.891 µM [inhibitor, partial curve, poor fit] |

| Structure (SMILES) | Potency |
| --- | --- |
| C=CCSC1=N/C(=C\c2sccc2C)C(=O)S1 | inactive |
| Cc1cccc(N2CCN(C(=O)CS(=O)(=O)c3cccc4nsnc34)CC2)c1C | inconclusive: 5.62 µM [activator, single point] |
| O=C(CCCCl)NC(=S)Nc1cc(C(F)(F)F)ccc1N1CCOCC1 | inconclusive: 11.6 µM [inhibitor, single point] |
| O=C1c2ccccc2CCC1C(O)c1ccccn1 (stereo unspecified) | inactive |
| S=C(NC12CC3CC(CC(C3)C1)C2)N1CCCC1 | inactive |
| CCc1nc(NCCCn2ccnc2)c2oc3ccccc3c2n1 | inactive |
| Clc1ccccc1-c1nnc2sc(-c3ccc4c(c3)OCO4)nn12 | inconclusive: 29.1 µM [inhibitor, single point] |
| CCCC(c1nnnn1Cc1cccs1)N1CCN(c2nc3ccccc3s2)CC1 (stereo unspecified) | inconclusive: 29.1 µM [inhibitor, single point] |
| CCOC(=O)c1c(-c2ccc(C)o2)csc1NC(=O)CN1CCCCC1 | inconclusive: 7.94 µM [inhibitor, partial curve] |
| C#CCSc1nncn1C(=O)/C=C/c1ccccc1 | inactive |
| CCCCc1ccc(NC(=O)c2cnccn2)cc1 | active: 11.2 µM |
| COc1ccccc1CNC(=O)Cn1c(=O)nc(-c2ccccc2F)c2cc(Cl)ccc21 | inconclusive: 22.4 µM [inhibitor, single point] |
| CC(C)(C)NC(=O)COc1ccc2oc3c(c2c1)CCCC3 | inconclusive: 12.6 µM [inhibitor, single point] |
| Cc1ccccc1NC(=NCCCN1CC1)Nc1ccccc1C | active: 12.6 µM |
| CC(C)c1ccc(NC(=O)Cn2c(=O)n(CC3CCC(C(=O)NCCc4ccccc4)CC3)c(=O)c3ccccc32)cc1 (stereo unspecified) | inactive |
| O=c1c2ccccc2oc2cc(Br)ccc12 | inactive |
| COc1cc(OC)cc(C(=O)Nc2nc(-c3ccccc3)c(-c3ccccc3)o2)c1 | inconclusive: 10.3 µM [inhibitor, partial curve, poor fit] |
| Cn1c(Sc2nc3ccccc3n2C)nc2ccccc21 | inconclusive: 18.3 µM [inhibitor, single point] |
| CCOC(=O)c1cccc(NC(=O)CCS(=O)(=O)c2ccc3c(c2)CC(=O)N3C)c1 | inconclusive: 11.2 µM [activator, partial curve, poor fit] |
| CCOc1ccccc1CNC(=O)CCc1c(C)nn(-c2ccc(N3CCCC3)nn2)c1C | inactive |
| Cc1cccc(NC(=O)Cn2c(=O)n(C)c3ccccc32)c1 | inactive |
| O=C(COC(=O)c1cncc(Br)c1)NCc1ccco1 | inactive |
| CC(C)Sc1ccccc1C(=O)Nc1ccc2c(c1)n(C)c(=O)n2C | inconclusive: 1 µM [inhibitor, single point] |

Filtered by structure, the compounds so far with a Cl atom.

| Structure (SMILES) | Potency |
| --- | --- |
| CC(NC(C)(C)C)C(=O)c1cccc(Cl)c1 (stereo unspecified) | inconclusive: 4.61 µM [inhibitor, partial curve, poor fit] |
| CN(C)CCCNC(=S)NCC(c1ccc(Cl)cc1Cl)c1c[nH]c2ccccc12 (stereo unspecified) | active: 10 µM |
| COCC(=O)n1nc(-c2ccco2)nc1NCc1ccccc1Cl | inconclusive: 7.94 µM [activator, partial curve, poor fit] |
| O=C(CCCCl)NC(=S)Nc1cc(C(F)(F)F)ccc1N1CCOCC1 | inconclusive: 11.6 µM [inhibitor, single point] |
| Clc1ccccc1-c1nnc2sc(-c3ccc4c(c3)OCO4)nn12 | inconclusive: 29.1 µM [inhibitor, single point] |
| COc1ccccc1CNC(=O)Cn1c(=O)nc(-c2ccccc2F)c2cc(Cl)ccc21 | inconclusive: 22.4 µM [inhibitor, single point] |
